Experimental data: US20050049402A1
Results are given in words; binding and its absence hold for the method and conditions named. Some binding calls cover weakened binding; strength is not graded here.

Sequences of proteins named here, by UniProt entry; tags and fusion partners are left off. A change or cut given only in a name is not applied to a line headed by its entry. Residues count along the entry.
UniProt P06804: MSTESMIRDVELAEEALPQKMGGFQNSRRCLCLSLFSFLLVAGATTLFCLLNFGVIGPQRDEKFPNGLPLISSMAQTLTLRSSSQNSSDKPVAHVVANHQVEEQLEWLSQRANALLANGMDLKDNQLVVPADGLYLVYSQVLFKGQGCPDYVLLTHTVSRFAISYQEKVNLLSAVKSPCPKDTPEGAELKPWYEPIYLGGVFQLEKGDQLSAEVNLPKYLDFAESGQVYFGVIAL
UniProt P20333, residues 23-257: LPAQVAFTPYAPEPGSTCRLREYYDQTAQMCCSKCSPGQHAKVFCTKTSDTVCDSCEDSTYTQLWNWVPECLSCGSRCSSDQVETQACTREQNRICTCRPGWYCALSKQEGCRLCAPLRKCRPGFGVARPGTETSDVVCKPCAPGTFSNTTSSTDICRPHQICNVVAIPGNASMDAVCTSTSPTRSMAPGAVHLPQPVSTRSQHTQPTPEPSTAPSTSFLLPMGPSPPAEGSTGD
UniProt P19438, residues 30-211: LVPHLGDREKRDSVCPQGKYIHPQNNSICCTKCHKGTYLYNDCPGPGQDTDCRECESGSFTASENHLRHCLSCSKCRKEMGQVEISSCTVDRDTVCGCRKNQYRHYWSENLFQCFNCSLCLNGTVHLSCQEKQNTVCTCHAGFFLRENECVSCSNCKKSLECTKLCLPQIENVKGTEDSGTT

Biological target: M/Hu HincII chimeric TNFα (human 91-157) (mouse; human) (UniProt P06804)
Assay: receptor-Fc binding to TNFα constructs

Substance | binding
p75-hFc construct (R&D Systems) (from UniProt P20333 23-257) (Fc fusion) | binds
p55-hFc (R&D) (from UniProt P19438 30-211) (Fc fusion) | binds
